# Laboratory results from paper PMC3319607.
# Chains of the proteins cited; added tags and fusions are not shown.
# UniProt P70315: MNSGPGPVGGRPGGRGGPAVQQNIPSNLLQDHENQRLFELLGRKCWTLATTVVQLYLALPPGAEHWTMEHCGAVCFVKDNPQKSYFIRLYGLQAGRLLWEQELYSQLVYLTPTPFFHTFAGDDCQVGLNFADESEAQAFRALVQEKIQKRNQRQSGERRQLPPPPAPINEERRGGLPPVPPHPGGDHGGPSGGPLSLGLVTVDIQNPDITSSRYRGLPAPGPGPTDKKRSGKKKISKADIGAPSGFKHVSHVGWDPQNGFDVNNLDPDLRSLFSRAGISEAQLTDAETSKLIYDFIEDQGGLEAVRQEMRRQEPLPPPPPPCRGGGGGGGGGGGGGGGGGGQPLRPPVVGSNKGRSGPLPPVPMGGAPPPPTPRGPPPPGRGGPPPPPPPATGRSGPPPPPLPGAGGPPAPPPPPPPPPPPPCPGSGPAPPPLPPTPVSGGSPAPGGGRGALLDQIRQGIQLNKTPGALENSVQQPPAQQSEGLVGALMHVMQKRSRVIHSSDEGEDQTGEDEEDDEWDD
# UniProt Q8K1I7: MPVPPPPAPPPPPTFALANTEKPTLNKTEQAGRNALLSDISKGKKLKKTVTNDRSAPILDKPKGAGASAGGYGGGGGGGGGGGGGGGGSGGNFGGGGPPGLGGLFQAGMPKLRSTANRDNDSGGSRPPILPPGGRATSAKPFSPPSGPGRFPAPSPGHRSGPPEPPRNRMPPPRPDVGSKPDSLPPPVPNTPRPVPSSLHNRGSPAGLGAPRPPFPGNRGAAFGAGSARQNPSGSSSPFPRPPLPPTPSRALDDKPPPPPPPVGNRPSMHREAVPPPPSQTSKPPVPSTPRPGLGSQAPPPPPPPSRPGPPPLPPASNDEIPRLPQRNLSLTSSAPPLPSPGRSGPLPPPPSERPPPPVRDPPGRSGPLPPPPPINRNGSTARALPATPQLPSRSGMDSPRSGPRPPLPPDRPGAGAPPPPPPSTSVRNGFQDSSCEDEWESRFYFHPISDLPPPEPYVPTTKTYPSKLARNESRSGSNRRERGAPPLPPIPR
# Results are given in words; binding and its absence hold for the method and conditions named. Binding seen in cells or lysates may run through a third protein. Some results given as binding are weak or reduced against the parent protein; the word gives no strength.
# Molecular target: Wiskott-Aldrich syndrome protein (WASP), native, in RAW 264.7 cell lysate (mouse (endogenous in RAW 264.7)) (UniProt P70315)
# Test: co-IP; RAW264.7 lysate (RIPA buffer) incubated with S01 anti-WASP-scFv silk powder (RT, 60 min, five TBST washes) or with anti-WASP mAb on protein G-sepharose; blot with anti-WASP pAb and anti-WIP pAb
substance,measurement,value
"WASP-interacting protein (WIP), native, in RAW 264.7 cell lysate (from UniProt Q8K1I7 1-493)",binding,binds
